Data from patent US20260015677.
The exact form of at least one protein or probe is not confirmed. A negative result means that nothing was seen under these conditions.

Tested on: AscI
Assay: enzyme reaction in vitro
Conditions: CutSmart, 37 C, purified recombinant protein, protein details: NEB R0558S

Sequence	activity on this sequence (5mC in AscI site on both strands, made by DNMT5, not cleaved after DNMT5 methylation, variant of hemimethylated AscI substrate 195 bp)	activity on this sequence (5mC at first C of AscI site (GG[5mC]GCGCC) on top strand from primer SEQ:6, cleaved to 135 and 60 bp)
CCGGTAGGGGCCCATTATAGCCGAATTCGGCGCGCCAGGTGGCACTTTTCGGGGAAATGTGCGCGGAACCCCTATTTGTTTATTTTTCTAAATACATTCAAATATGTATCCGCTCATGAGACAATAACCCTGATAAATGC (double strand) [symmetrically methylated AscI substrate 195 bp]	not active	–
CCGGTAGGGGCCCATTATAGCCGAATTCGGCGCGCCAGGTGGCACTTTTCGGGGAAATGTGCGCGGAACCCCTATTTGTTTATTTTTCTAAATACATTCAAATATGTATCCGCTCATGAGACAATAACCCTGATAAATGC (double strand) [hemimethylated AscI substrate 195 bp]	–	active
